The results in this text go back to the supplement of paper PMC4604168 (melanoma cell lines).

The structures appear in SMILES notation. This is one part of the list. Repeats are few or missing, and single values can be far off.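 The apoptosis fraction was the count of cleaved-PARP antibody-stained nuclei relative to all DNA-stained nuclei, imaged in 1,536-well plates. Screening doses were set so most cells survived, and baseline and induced cleaved-PARP levels vary greatly across cell lines.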

The subject of the experiment is WM1716. The experiment in a line: cleaved PARP positive nuclei fraction relative to DMSO control; melanoma cells; higher = more apoptosis. The conditions noted are these: library dose: low library concentration; 72 h.
Take `Nc1ncn([C@H]2C[C@H](O)[C@@H](CO)O2)c(=O)n1` [decitabine] + COc1ccc(-c2ccc3c(N4CCOCC4)nc(N4C[C@@H](C)O[C@@H](C)C4)nc3n2)cc1CO [KU0063794] (first compound 0.1 µM, partner dose 0.02 µM): the “cleaved PARP positive nuclei fraction” value turned out to be 33.1%.
Regarding `CS(=O)(=O)CCNCc1ccc(-c2ccc3ncnc(Nc4ccc(OCc5cccc(F)c5)c(Cl)c4)c3c2)o1` [lapatinib] + O=S(=O)(c1ccccc1)N(CC(F)(F)F)c1ccc(C(O)(C(F)(F)F)C(F)(F)F)cc1 [T0901317] (first compound 0.8 µM, partner dose 1.4 µM), the “cleaved PARP positive nuclei fraction” value came to 58.2%.
Consider `Nc1ccn([C@@H]2O[C@H](CO)[C@@H](O)C2(F)F)c(=O)n1` [gemcitabine] + CC1(C)NC(=O)N(c2ccc([N+](=O)[O-])c(C(F)(F)F)c2)C1=O [nilutamide] (first compound 0.0004 µM, partner dose 1 µM), for which the “cleaved PARP positive nuclei fraction” value is 175%.
The same measure for `CCCS(=O)(=O)Nc1ccc(F)c(C(=O)c2c[nH]c3ncc(Cl)cc23)c1F` + O=C1NC(=O)/C(=C/c2ccc(-c3ccc(F)cc3O)o2)S1 [AS252424] (first compound 0.08 µM, partner dose 1 µM): 89%; for `CNC(=O)c1cc(Oc2ccc(NC(=O)Nc3ccc(Cl)c(C(F)(F)F)c3)cc2)ccn1` [sorafenib] + C[C@@H]1CCN(C(=O)CC#N)C[C@@H]1N(C)c1ncnc2[nH]ccc12 [CP690550] (first compound 0.4 µM, partner dose 1 µM): 151%.
